Data on 12 molecules can be found in US20180194862A1.

The chains behind the UniProt entries cited, without tags or fusion partners. Where a name states a change or a piece, a line headed by the entry shows the natural chain unless it says otherwise. A line that says so, or that is headed by a name, gives the form on record, which may keep a tag or linker. Residues count along the entry.
cynomolgus CD40 on cells (HEK293 stable transfectants, cynomolgus PBMC B cells) (G7PG38, form named): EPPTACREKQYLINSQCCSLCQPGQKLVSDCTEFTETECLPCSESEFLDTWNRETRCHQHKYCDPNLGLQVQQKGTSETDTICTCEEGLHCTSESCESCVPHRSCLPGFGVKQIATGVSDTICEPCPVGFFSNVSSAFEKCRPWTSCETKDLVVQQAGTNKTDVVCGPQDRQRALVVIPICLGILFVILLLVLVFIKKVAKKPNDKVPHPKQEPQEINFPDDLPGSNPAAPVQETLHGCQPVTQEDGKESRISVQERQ
UniProt A9YYE7, residues 24-186: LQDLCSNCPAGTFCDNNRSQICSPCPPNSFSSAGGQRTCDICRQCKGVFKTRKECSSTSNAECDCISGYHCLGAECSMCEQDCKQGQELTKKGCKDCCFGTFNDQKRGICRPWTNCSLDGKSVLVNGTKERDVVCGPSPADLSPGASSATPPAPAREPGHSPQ

In test [1] the target is cynomolgus CD40 on cells (HEK293 stable transfectants, cynomolgus PBMC B cells) (cynomolgus) (UniProt G7PG38). Kind of test: FACS, PBMC, CF640R-labelled Ab. For orientation: Flow cytometry measures light scatter and fluorescence of single cells or particles in a stream.
For test [2] the target is unchanged. The test is described as follows: FACS, HEK293 transfectants.
Test [3] deals with cynomolgus 4-1BB (cynomolgus) (UniProt A9YYE7). Kind of test: SPR.

Substitutions are numbered along the chain they refer to. No constants are given. Whether binding was seen depends on the method and setting. Some results given as binding are weak or reduced against the parent protein; the word gives no strength.

B1: huAb6-1 (antibody, human IgG1, V domains shown)
VH: EVQLVQSGAEVKKPGSSVKVSCKASGYTFTSYWMHWVRQAPGQGLEWIGNIDPSNGETHYNQKFKDRATLTVDKSTSTAYMELSSLRSEDTAVYYCARERIYYSGSTYDGYFDVWGQGTTVTVSS
VL: DIQLTQSPSFLSASVGDRVTITCSASSSLSYMHWYQQKPGKSPKRWIYDTSKLASGVPSRFSGSGSGTEYTLTISSLQPEDFATYYCQQWSSNPWTFGGGTKVEIK
Take B1: the binding result in test [1] and in test [2] was “binds” throughout.

B2: huAb6-3 (antibody, human IgG1, V domains shown)
VH: B1 VH with N61A, K65Q, D66G, A68V, L70I
VL: B1 VL
Regarding B2, the binding result in test [1] and in test [2] was “binds” each time.

B3: huAb6-2 (antibody, human IgG1, V domains shown)
VH: B1 VH with A68V, L70I
VL: B1 VL
For B3, the binding entry in test [1] and in test [2] was “binds” in each case.

B4: huAb9-6 (antibody, human IgG1, V domains shown)
VH: EVQLQESGPGLVKPSETLSLTCTVSGYSISSNYYWNWIRQPPGKGLEWMGYIRYDGSNNYNPSLKSRVTISRDTSKNQFSLKLSSVTAADTAVYYCARLDYWGQGTTVTVSS
VL: DAVMTQTPLSLSVTPGQPASISCRSSQSLENTNGNTFLNWYLQKPGQSPQLLIYRVSNRFSGVPDRFSGSGSGTDFTLKISRVEAEDVGVYYCLQVTHVPFTFGQGTKLEIK
In the case of B4, the binding entry in test [1] and in test [2] was “binds” each time.

B5: huAb9-1 (antibody, human IgG1, V domains shown)
VH: B4 VH with S30T, S66N, V68I
VL: B4 VL with Y41F, Y92F
With B5, the binding entry in test [1] and in test [2] was “binds” in each case.

B6: huAb9-2 (antibody, human IgG1, V domains shown)
VH: B4 VH with S30T, S66N
VL: B4 VL with Y41F, Y92F
On to B6, for which the binding entry in test [1] and in test [2] was “binds” in each case.

B7: huAb9-3 (antibody, human IgG1, V domains shown)
VH: B4 VH
VL: B4 VL with Y41F, Y92F
For the molecule B7, the binding entry in test [1] and in test [2] was “binds” each time.

B8: huAb9-4 (antibody, human IgG1, V domains shown)
VH: B4 VH with S30T, S66N, V68I
VL: B4 VL
For the molecule B8, the binding result in test [1] and in test [2] was “binds” in each case.

B9: TABBY107-rIgG1 (antibody, V domains shown)
VH: QVKLVQSGAALVKPGASVKMSCKASDYTFNDYWVSWVKQRHGESLEWIGEIYPNSGATNFNGKFRGKATLTVDNPTSTAYMELSRLTSEDSAIYYCTREYTRDWFAYWGQGTLVTVSS
VL: DVVLTQTPSILSATIGQSVSISCRSSQSLLDSDGNTYLYWFLQRPGQSPQRLIYLVSNLGSGVPNRFSGSGSGTDFTLKISGVEAEDLGIYYCMQPTHAPYTFGAGTKLELK
For the molecule B9, the binding entry in test [3] is “binds”.

B10: TABBY106-rIgG1 (antibody, V domains shown)
VH: QVQLQQSGAELAKPGTSVKLSCKASGYTFTSYYIYWVKQRPGQGLEWIGNIWPGNGGTFYGEKFMGKATFTADTSSSTAYMLLGSLTPEDSAYYFCARRPDYSGDDYFDYWGQGVLVTVSS
VL: QVVLTQPKSVSTSLKSTVKLSCKLNSGNIGSYYVHWYQQHAGRSPTTMIYRDDKRPDGVPDRFSGSIDSSSNSAFLTINNVQTEDDAIYFCHSYDSTITPVFGGGTKLTVL
Turning to B10, in test [3], the binding result is “binds”.

B11: huAb8-2 (antibody, human IgG1, V domains shown)
VH: EVQLVQSGAEVKKPGSSVKVSCKASGYTFTDYYINWVRQAPGQGLEWIGWIFPGSGSVYSNEQFKGRATLTVDRSTSTAYMELSSLRSEDTAVYFCASSLGKFAYWGQGTLVTVSS
VL: DIQMTQSPSSLSASVGDRVTITCKASQSVVTAVAWYQQKPGKSPKLLIYSASNRYTGVPSRFSGSGSGTDFTLTISSLQPEDFATYFCQQYSSYPYTFGGGTKVEIK
Consider B11, for which the binding entry in test [1] and in test [2] was “binds” each time.

B12: huAb8-3 (antibody, human IgG1, V domains shown)
VH: B11 VH with S60C, A68V, L70I, R74K, F95Y
VL: B11 VL
For the molecule B12, the binding entry in test [1] and in test [2] was “binds” in each case.
